Assay results taken from patent publication US8703811B2, “Small molecule inhibitors of Plasmodium falciparum dihydroorotate dehydrogenase” (Genzyme Corporation, priority 2008, dated 2014).
At least one structure is not confirmed: it was looked up by name or label, or the drawing left a doubt.

Protein sequences, listed by entry. Tags and fused reporters are not part of them. Residues count along the entry.
UniProt A0A509AEH5, 1-517: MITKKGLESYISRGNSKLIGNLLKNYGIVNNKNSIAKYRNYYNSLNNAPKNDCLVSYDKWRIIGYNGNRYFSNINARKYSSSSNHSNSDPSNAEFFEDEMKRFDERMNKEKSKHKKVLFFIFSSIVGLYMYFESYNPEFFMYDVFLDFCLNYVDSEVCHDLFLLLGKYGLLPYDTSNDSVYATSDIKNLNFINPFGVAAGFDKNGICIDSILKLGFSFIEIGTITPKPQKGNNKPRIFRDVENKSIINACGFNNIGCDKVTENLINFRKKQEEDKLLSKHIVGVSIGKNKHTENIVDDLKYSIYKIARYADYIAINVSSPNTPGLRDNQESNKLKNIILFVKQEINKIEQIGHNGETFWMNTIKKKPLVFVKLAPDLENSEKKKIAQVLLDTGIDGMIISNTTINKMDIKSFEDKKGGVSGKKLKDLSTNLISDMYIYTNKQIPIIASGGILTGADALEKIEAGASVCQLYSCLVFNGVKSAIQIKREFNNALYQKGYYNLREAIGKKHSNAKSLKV

Experiments:
[1] = tested on: P. falciparum D10-scDHODH; assay: Inhibition of transgenic D10-scDHODH parasites, [3H]-hypoxanthine uptake; assay type: cell-based; details: dose-effect curves, FIG. 5
Experimental: P. falciparum strains D10, 3D7, HB3, and Dd2 were obtained from the Malaria Research and Reference Reagent Resource Center (Manassas, Va.). The parasite strains were maintained in vitro by method of Trager and Jensen. The inhibition of P. falciparum growth in the presence of drug was assessed by the relative reduction of [^3H]-hypoxanthine uptake as previously described. Inhibition data were fitted to Equation 1 using non-linear regression analysis except that the relative velocity of parasite growth was substituted for the rate of product formation.
Transgenic parasites expressing scDHODH were generated as described by Painter et al. except that full length scDHODH was cloned directly into the pGem3Z vector without a GFP tag. The resultant plasmid was transfected into ring stages of P. falciparum D10 by electroporation and maintained in culture using standard methods under the selection of WR99210.

pbDHODH = pbDHODH (Plasmodium berghei, UniProt A0A509AEH5); assay: DCIP assay, pbDHODH; assay type: biochemical, P. berghei; details: 10 μM
Source text: Type 2 DHODH activity was monitored with either the direct assay measuring the formation of orotate or via a chromogen reduction assay using DCIP. Although the extinction coefficient and absorption wavelength are preferable for the chromogen reduction assay, the inorganic electron acceptor DCIP can be utilized by DHODH as the final electron acceptor in lieu of CoQn when the endogenous substrate is at a low concentration. As such, the direct assay was used to measure the binding affinity of pfDHODH to CoQD and L-DHO. The enzymatic reaction was performed by varying the L-DHO concentration (1-400 μM) or CoQD concentration (1-200 μM) while keeping the other substrate constant and in excess. The formation of orotate was measured continuously at 296 nm (ε296=4.3 mM^−1 cm^−1). Inhibition of DHODH by small molecules was evaluated using the chromogen based assay with a final substrate concentration of 200 μM L-DHO, 18 μM CoQD, and 100 μM DCIP, unless otherwise noted. The reduction of DCIP was monitored at 600 nm (ε600=18.8 mM^−1 cm^−1).
Substrate specificity and enzyme inhibition data was analyzed with GraphPad Prism Version 4 for Windows (GraphPad Software). Kinetic constants were calculated by non-linear regression fitting of the data to the Michaelis-Menten equation [36]. IC50 values were determined by non-linear regression fitting of the data to Equation 1: […]

Row | SMILES | efficacy against D10-scDHODH strain compared to D10 parent strain [1] | inhibition of pbDHODH at a single concentration (pbDHODH)
1 | Cc1ccccc1/C=C/c1cc(O)c2ccccc2n1 [Compound 2] | markedly reduced | –
2 | CCCCCC1CCCc2c1[nH]c1ccccc1c2=O (centres unmarked) [Compound 3] | significantly reduced | –
3 | Fc1cc(I)ccc1Nc1ccnc2cc(Cl)ccc12 [Compound 4] | remained constant | none
4 | CCOC(=O)c1[nH]c(C)c(Cc2ccc(OCC)cc2)c1C [Compound 6] | significantly reduced | –
